Holding throughout (test): flow cytometry on cells; HEK cells cotransfected with plasmids for EGFP and RAE-1δ, RAE-1ε or RAE-1γ, 3 days of culture; incubated with increasing concentrations of NKG2D/Fc (15 min on ice, PBS 1% FCS, 0.02% sodium azide), then PE-labeled anti-human IgG-Fc; read-out: PE MFI on EGFP positive cells minus PE MFI on EGFP negative cells; only the binder purified
One test has as its target T1, RAE-1δ (mouse) (UniProt Q9JI58).
T1 sequence: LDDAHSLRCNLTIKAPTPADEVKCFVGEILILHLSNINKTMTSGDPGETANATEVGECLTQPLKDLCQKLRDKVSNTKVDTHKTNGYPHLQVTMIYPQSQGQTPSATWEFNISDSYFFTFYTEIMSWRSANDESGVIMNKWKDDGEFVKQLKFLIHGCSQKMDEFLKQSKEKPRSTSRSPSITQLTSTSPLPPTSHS

Another test addresses T2, RAE-1γ (mouse) (UniProt O08604).
T2 sequence: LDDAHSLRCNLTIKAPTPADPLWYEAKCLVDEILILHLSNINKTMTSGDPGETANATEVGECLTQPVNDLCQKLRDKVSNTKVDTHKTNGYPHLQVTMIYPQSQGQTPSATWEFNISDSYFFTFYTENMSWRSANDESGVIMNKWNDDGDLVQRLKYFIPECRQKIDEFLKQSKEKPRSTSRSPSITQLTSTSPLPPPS

The target of another test is T3, RAE-1ε (mouse) (UniProt Q9CZQ6).
T3 sequence: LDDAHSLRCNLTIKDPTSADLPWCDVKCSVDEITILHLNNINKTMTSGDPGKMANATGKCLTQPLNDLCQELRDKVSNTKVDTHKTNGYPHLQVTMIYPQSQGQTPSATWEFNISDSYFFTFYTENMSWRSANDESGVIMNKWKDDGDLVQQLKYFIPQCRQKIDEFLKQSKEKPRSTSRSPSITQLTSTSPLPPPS

No constants are given. Whether binding was seen depends on the method and setting. Some entries that bind do so weakly or less than the wild type. Where a sequence is shown, tags or fusion partners need not be part of it.

B1: mouse recombinant NKG2D/Fc chimera (Fc fusion, UniProt O54709 90-232)
chain: FKETFQPVLCNKEVPVSSREGYCGPCPNNWICHRNNCYQFFNEEKTWNQSQASCLSQNSSLLKIYSKEEQDFLKLVKSYHWMGLVQIPANGSWQWEDGSSLSYNQLTLVEIPKGSCAVYGSSFKAYTEDCANLNTYICMKRAV
Turning to B1, the binding entry with RAE-1δ (mouse) is “binds weakly”; with RAE-1γ (mouse), “binds”; in the test with RAE-1ε (mouse), “binds”.

The values are drawn from publication PMC2957426.
